{"source": "PubChem BioAssay AID493246 (Drosophila RNAi Screening Center, 2011)", "assay": "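Genes fly cells need to grow and stay alive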 (primary screen)", "cells": "Drosophila Kc and S2R+ cells", "knock-down reagent": "long dsRNA against Drosophila genes", "measured": "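Cell number per well after knock-down, printed as raw plate values; calls were based on per-plate z-scores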", "scale": "Kc cell number and S2R+ cell number: higher = more cells remaining", "active means": "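Active when the per-plate z-score of cell number is 3 or more in the direction of fewer cells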", "note": "The screen tested about 21,000 reagents; this is an unselected part of those that have a named target and a result. In the full data, 429 (2%) got an active call. 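Values are raw and not normalised between plates; calls rest on per-plate z-scores that were not deposited.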 Unmarked entries are inactive. Names joined by + are all predicted targets of the reagent. Not given: the amount of reagent, the time to read-out."}
{"target": "neo (neyo)", "dsRNA": "DRSC16316", "Kc cell number, rep 1": 5.43e5, "S2R+ cell number, rep 1": 8.15e5}
{"target": "GluClalpha (Glutamate-gated chloride channel subunit alpha)", "dsRNA": "DRSC16680", "Kc cell number, rep 1": 1.28e6, "Kc cell number, rep 2": 1.41e6, "S2R+ cell number, rep 1": 1.05e6, "S2R+ cell number, rep 2": 1.07e6}
{"target": "EDTP (Egg-derived tyrosine phosphatase)", "dsRNA": "DRSC07409", "Kc cell number, rep 1": 1.62e6, "Kc cell number, rep 2": 1.61e6, "S2R+ cell number, rep 1": 1.21e6, "S2R+ cell number, rep 2": 1.41e6}
{"target": "mRpL21 (mitochondrial ribosomal protein L21)", "dsRNA": "DRSC11100", "Kc cell number, rep 1": 1.40e6, "Kc cell number, rep 2": 1.41e6, "S2R+ cell number, rep 1": 1.09e6, "S2R+ cell number, rep 2": 1.18e6}
{"target": "CG12511", "dsRNA": "DRSC02171", "Kc cell number, rep 1": 1.77e6, "Kc cell number, rep 2": 2.06e6, "S2R+ cell number, rep 1": 1.14e6, "S2R+ cell number, rep 2": 1.30e6}
{"target": "Dlg5 (Discs large 5)", "dsRNA": "DRSC02964", "Kc cell number, rep 1": 1.18e6, "Kc cell number, rep 2": 1.21e6, "S2R+ cell number, rep 1": 9.53e5, "S2R+ cell number, rep 2": 1.03e6}
{"target": "EMC6 (ER membrane protein complex subunit 6)", "dsRNA": "DRSC14386", "Kc cell number, rep 1": 1.54e6, "Kc cell number, rep 2": 1.48e6, "S2R+ cell number, rep 1": 9.93e5, "S2R+ cell number, rep 2": 1.09e6}
{"target": "hale (hale-bopp)", "dsRNA": "DRSC10882", "Kc cell number, rep 1": 1.47e6, "Kc cell number, rep 2": 1.53e6, "S2R+ cell number, rep 1": 1.38e6, "S2R+ cell number, rep 2": 1.44e6}
{"target": "Mitofilin", "dsRNA": "DRSC16742", "Kc cell number, rep 1": 1.52e6, "Kc cell number, rep 2": 1.64e6, "S2R+ cell number, rep 1": 1.03e6, "S2R+ cell number, rep 2": 1.08e6}
{"target": "CG1273", "dsRNA": "DRSC08291", "Kc cell number, rep 1": 1.45e6, "Kc cell number, rep 2": 1.56e6, "S2R+ cell number, rep 1": 1.08e6, "S2R+ cell number, rep 2": 1.17e6}
{"target": "Alms1b + Alms1a", "dsRNA": "DRSC18559", "Kc cell number, rep 1": 6.18e5, "S2R+ cell number, rep 1": 8.42e5}
{"target": "NimA (Nimrod A)", "dsRNA": "DRSC01353", "Kc cell number, rep 1": 1.60e6, "Kc cell number, rep 2": 1.67e6, "S2R+ cell number, rep 1": 9.34e5, "S2R+ cell number, rep 2": 1.17e6}

Just “S2R+ cell number, rep 2” (2 entries from above):
CG12511 [DRSC02171] = 1.30e6
Dlg5 (Discs large 5) [DRSC02964] = 1.03e6
